Laboratory results published in article PMC3958483, “Fine Specificity and Molecular Competition in SLAM Family Receptor Signalling” (PLoS ONE, 2014).
These are yes or no findings as the source states them, for the method shown. Binding seen in cells or lysates may run through a third protein. Here binding means that the protein was enriched with, or labelled near, the bait; the list need not be complete.

Chains of the proteins cited; added tags and fusions are not shown.
UniProt P62993: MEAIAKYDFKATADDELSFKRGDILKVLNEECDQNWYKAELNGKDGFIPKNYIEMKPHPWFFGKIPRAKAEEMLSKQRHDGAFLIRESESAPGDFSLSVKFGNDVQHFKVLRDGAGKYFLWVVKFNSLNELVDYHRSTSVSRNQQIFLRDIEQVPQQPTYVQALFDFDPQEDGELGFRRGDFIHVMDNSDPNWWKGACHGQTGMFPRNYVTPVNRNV
UniProt P29350: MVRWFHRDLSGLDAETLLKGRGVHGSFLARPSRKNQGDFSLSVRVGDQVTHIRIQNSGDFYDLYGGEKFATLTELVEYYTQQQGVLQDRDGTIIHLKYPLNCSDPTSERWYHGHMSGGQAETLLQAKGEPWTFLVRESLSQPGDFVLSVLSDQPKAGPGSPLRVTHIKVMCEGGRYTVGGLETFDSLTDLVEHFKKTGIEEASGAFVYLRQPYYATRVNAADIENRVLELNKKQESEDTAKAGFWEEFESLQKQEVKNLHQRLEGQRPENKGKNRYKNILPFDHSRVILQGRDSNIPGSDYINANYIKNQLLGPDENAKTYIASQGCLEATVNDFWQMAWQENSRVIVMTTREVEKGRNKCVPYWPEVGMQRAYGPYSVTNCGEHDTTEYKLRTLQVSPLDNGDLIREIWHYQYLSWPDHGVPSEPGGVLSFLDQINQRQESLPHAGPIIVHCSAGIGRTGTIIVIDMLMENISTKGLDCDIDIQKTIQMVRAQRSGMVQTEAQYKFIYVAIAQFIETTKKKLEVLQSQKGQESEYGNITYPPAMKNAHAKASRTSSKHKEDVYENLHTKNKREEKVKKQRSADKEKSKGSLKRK
UniProt P41240: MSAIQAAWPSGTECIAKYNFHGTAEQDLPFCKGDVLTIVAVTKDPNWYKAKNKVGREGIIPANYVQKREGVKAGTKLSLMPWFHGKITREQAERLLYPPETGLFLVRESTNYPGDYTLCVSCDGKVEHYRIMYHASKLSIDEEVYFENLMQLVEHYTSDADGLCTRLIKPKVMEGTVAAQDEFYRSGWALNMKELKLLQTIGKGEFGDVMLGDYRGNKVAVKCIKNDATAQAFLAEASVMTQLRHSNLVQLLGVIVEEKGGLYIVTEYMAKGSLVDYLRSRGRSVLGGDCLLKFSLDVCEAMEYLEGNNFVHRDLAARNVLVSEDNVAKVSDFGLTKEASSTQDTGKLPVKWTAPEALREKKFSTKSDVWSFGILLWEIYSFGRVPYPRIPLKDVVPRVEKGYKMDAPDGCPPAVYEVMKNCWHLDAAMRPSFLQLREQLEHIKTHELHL

Biological target: T1, CD244 ITSM1 phosphopeptide (Biotin-EFLTIpYEDVKD) (human)
T1 sequence (peptide, phosphotyrosine (pY, position 6 of the peptide); biotin on the N-terminus): EFLTIYEDVKD
Assay: affinity purification with mass spectrometry; streptavidin Sepharose coated with saturating biotinylated phosphopeptide or EAT-2; lysate of NK92 cells treated with 500 μM pervanadate (PBS, 1% Triton X-100, 1 mM orthovanadate); 2 hours at 4°C; eluted with glycine-HCl pH 2.5; LC-MS/MS; compared with a control bait (SHIP-1 Y865 phosphopeptide or EAT-2); only the target purified

binding, binds:
Growth factor receptor-bound protein 2 (GRB2) (endogenous, NK92 cells) (from UniProt P62993 1-217)
SHP-1 (endogenous, NK92 cells) (from UniProt P29350 1-595) (enzyme)
SHP-2 (endogenous, NK92 cells) (from UniProt Q06124 1-593) (enzyme)
c-Src Tyrosine Kinase (CSK) (endogenous, NK92 cells) (from UniProt P41240 1-450) (enzyme)
